# According to publication PMC10889066:
# By UniProt entry, the sequences of proteins in these tests, tags left out. Where a name states a change or a piece, a line headed by the entry shows the natural chain unless it says otherwise.
# UniProt P05556: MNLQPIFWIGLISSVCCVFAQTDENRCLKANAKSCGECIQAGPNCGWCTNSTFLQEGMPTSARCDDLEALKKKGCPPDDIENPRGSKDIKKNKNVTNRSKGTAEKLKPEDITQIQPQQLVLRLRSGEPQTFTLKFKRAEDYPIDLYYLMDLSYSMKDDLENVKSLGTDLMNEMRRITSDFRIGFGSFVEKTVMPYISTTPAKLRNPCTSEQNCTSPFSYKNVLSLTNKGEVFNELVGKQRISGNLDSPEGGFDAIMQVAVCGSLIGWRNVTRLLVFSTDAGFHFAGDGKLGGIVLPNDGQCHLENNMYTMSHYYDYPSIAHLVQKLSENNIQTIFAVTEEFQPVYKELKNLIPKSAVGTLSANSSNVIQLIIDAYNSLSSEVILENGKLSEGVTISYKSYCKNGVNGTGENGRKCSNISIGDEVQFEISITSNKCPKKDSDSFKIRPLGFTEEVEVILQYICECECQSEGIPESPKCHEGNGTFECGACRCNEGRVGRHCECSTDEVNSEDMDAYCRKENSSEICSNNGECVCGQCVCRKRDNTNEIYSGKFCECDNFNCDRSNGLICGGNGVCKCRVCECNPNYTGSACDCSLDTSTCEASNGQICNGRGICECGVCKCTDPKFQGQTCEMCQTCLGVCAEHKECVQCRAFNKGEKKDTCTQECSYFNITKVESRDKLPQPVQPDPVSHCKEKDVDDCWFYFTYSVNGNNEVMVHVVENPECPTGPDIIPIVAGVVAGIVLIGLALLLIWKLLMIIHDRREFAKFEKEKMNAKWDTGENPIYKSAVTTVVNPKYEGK
# UniProt Q96AC1: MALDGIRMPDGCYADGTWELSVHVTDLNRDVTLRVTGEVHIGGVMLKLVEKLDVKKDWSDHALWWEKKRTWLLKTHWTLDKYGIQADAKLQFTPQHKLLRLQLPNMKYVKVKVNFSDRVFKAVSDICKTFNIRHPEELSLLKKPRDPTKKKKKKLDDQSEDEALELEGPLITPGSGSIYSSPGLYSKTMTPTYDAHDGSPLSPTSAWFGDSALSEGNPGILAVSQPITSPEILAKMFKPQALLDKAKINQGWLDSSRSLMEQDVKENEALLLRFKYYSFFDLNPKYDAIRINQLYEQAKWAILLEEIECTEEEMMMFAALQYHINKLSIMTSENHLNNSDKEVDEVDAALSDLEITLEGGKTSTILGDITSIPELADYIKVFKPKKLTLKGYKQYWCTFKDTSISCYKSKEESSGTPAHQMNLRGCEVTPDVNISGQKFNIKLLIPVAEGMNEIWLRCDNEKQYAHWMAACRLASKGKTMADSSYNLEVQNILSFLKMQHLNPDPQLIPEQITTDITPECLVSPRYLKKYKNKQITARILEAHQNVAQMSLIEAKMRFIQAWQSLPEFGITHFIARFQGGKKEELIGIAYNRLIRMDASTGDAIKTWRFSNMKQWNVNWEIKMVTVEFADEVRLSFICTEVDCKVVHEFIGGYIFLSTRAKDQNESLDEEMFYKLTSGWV
# No constants are given. Whether binding was seen depends on the method and setting. For part of these data: Binding seen in cells or lysates may run through a third protein. Some results given as binding are weak or reduced against the parent protein; the word gives no strength.
# T1: TGF-β type 1 receptor (human (endogenous in MDA-MB-231)) (UniProt P36897)
# T1 sequence: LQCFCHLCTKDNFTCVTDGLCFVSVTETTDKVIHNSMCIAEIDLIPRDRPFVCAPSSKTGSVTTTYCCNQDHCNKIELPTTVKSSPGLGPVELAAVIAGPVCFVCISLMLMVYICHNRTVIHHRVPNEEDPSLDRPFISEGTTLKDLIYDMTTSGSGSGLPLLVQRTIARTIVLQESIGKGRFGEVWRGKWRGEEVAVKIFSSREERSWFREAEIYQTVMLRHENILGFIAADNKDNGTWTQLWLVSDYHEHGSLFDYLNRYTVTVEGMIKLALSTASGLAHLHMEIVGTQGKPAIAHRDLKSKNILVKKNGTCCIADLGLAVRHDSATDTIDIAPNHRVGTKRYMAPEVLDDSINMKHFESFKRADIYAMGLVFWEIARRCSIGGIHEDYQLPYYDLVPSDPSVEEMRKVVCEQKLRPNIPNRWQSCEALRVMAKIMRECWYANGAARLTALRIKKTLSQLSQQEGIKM
# T2: TβRI (pull-down assays) (UniProt P36897)
# T2 sequence: T1 sequence
# T3: immobilized TβRI (UniProt P36897)
# T3 sequence: T1 sequence
# B1: TGF-β type 1 receptor (receptor, UniProt P36897 34-503)
# chain: T1 sequence
# Legend:
# [1] = biological target: T1, TGF-β type 1 receptor (human (endogenous in MDA-MB-231)); test: co-IP; total protein lysates of MDA-MB-231 cells (RIPA or NP40 lysis buffer), incubated at 4°C with protein A resin and specific antibodies; endogenous proteins; western blot
# [2] = biological target: β1-Integrin (human (endogenous in MDA-MB-231)) (UniProt P05556); test: as above
# TβRI (pull-down assays) = biological target: T2, TβRI (pull-down assays); test: pull-down; pull-down assays with Kindlin-2 and TβRI (Fig. 1F); bait, constructs and conditions not told
# immobilized TβRI = biological target: T3, immobilized TβRI; test: SPR; printed as 'surface plasmon resonance analyses (solid binding assay)'; TβRI or β1-Integrin immobilised, recombinant Kindlin-2 in solution; both purified
# immobilized β1-Integrin = immobilized β1-Integrin (UniProt P05556); test: as above
# [3] = biological target: Kindlin-2 (human (endogenous in MDA-MB-231)) (UniProt Q96AC1); test: co-IP; total protein lysates of MDA-MB-231 cells (RIPA or NP40 lysis buffer), incubated at 4°C with protein A resin and specific antibodies; endogenous proteins; western blot
Molecule,binding [1],binding [2],binding [3],further results
Kindlin-2 (from UniProt Q96AC1 1-680),binds,binds,–,–
Kindlin-2 (pull-down assays) (from UniProt Q96AC1 1-680),–,–,–,binding (TβRI (pull-down assays)): binds
recombinant Kindlin-2 (from UniProt Q96AC1 1-680),–,–,–,binding (immobilized TβRI): binds; binding (immobilized β1-Integrin): binds
β1-Integrin (from UniProt P05556 21-798) (receptor),binds,–,binds,–
B1,–,binds,binds,–
